Data taken from PMC6165534, “Inhibition of Homophilic Interactions and Ligand Binding of the Receptor for Advanced Glycation End Products by Heparin and Heparin-Related Carbohydrate Structures” (Medicines, 2018).
No constants are given. Whether binding was seen depends on the method and setting. For some assays here: Binding seen in cells or lysates may run through a third protein. Some entries that bind do so weakly or less than the wild type.

Protein sequences, listed by entry. Tags and fused reporters are not part of them. Lines headed by an entry give the natural chain unless they say otherwise; changes in a name come on top. Residues count along the entry.
UniProt Q15109: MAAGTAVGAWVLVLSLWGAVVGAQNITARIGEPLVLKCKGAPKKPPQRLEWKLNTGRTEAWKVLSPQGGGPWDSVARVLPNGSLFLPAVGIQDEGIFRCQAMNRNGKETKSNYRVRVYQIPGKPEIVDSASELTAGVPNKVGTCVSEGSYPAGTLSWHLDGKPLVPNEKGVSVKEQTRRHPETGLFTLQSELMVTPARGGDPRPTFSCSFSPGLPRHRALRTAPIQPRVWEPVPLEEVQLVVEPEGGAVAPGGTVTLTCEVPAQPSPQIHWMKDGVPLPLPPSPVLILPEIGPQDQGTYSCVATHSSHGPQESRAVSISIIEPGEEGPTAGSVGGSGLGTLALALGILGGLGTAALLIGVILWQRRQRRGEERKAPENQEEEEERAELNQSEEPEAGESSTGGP
Full length extracellular human RAGE (sRAGE) Ig-fusion protein: residues 28-331 of Q15109
UniProt P63159: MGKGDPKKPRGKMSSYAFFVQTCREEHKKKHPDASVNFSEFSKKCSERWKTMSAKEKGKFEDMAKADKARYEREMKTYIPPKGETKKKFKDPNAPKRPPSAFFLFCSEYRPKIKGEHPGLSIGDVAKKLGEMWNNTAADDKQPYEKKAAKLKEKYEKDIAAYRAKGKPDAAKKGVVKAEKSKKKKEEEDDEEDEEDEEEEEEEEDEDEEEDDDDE

Assays:
[1] = target: Full length extracellular human RAGE (sRAGE) Ig-fusion protein (human) (UniProt Q15109); test: ELISA; sRAGE Ig-fusion protein (5 mg/mL as printed) bound to protein A coated Maxisorb wells, blocked with BSA; biotinylated ligand 20 nM with or without carbohydrate inhibitors; streptavidin-HRP, absorbance at 490 nm; both purified
[2] = target: Full-length RAGE–cytoplasmic hGLuc fragment chimera (UniProt Q15109); test: split reporter; live-cell protein-fragment complementation assay (PCA): cells transfected with full-length RAGE fused to complementary hGLuc fragments, luminescence 48 h after transfection in serum-free DMEM; with or without heparin (partial inhibition)

| Substance | binding [1] | binding [2] |
| --- | --- | --- |
| Biotinylated recombinant HMGB1 (from UniProt P63159 1-215) (ligand) | binds |  |
| Full-length RAGE–cytoplasmic hGLuc fragment chimera (from UniProt Q15109 23-404) (receptor) |  | binds |
